Source: paper PMC5410327
These are yes or no findings as the source states them, for the method shown. In cells and extracts the contact can be indirect. Some results given as binding are weak or reduced against the parent protein; the word gives no strength.

Chains of the proteins cited; added tags and fusions are not shown.
UniProt Q86TM6: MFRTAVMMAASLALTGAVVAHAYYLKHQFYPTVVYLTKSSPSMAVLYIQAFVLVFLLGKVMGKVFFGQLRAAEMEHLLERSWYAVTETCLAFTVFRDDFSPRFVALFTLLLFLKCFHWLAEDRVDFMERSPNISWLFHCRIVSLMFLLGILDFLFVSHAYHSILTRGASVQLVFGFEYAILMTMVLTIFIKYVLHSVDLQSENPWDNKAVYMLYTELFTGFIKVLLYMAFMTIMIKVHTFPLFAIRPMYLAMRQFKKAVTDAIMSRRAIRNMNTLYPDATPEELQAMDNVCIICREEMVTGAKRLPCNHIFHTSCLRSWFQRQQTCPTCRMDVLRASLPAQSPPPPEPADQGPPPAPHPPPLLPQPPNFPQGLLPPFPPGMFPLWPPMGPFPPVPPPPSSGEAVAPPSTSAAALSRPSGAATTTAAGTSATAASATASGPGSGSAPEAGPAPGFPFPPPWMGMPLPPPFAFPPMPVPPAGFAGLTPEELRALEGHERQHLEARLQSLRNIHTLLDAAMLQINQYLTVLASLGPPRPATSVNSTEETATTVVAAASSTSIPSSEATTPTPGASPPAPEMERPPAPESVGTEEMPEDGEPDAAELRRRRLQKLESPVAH

Target: HRD1 (human (endogenous in MCF7)) (UniProt Q86TM6)
Assay: co-IP; endogenous proteins; MCF-7 cells pretreated with MG132 (10 μmol/l) for 6 h; IP with HRD1 or S100A8 antibodies, then immunoblotting; IgG as negative control

binding: binds
B1: S100A8 (protein, UniProt P05109 1-93)
chain: MLTELEKALNSIIDVYHKYSLIKGNFHAVYRDDLKKLLETECPQYIRKKGADVWFKELDINTDGAVNFQEFLILVIKMGVAAHKKSHEESHKE
